Assay results: the supplement of paper PMC12067093, “Discovery and optimisation of a covalent ligand for TRIM25 and its application to targeted protein ubiquitination” (Chemical Science, 2025)
The other results are listed elsewhere or left out.

The chains behind the UniProt entries cited, without tags or fusion partners. Where a name states a change or a piece, a line headed by the entry shows the natural chain unless it says otherwise.
UniProt Q6PL18: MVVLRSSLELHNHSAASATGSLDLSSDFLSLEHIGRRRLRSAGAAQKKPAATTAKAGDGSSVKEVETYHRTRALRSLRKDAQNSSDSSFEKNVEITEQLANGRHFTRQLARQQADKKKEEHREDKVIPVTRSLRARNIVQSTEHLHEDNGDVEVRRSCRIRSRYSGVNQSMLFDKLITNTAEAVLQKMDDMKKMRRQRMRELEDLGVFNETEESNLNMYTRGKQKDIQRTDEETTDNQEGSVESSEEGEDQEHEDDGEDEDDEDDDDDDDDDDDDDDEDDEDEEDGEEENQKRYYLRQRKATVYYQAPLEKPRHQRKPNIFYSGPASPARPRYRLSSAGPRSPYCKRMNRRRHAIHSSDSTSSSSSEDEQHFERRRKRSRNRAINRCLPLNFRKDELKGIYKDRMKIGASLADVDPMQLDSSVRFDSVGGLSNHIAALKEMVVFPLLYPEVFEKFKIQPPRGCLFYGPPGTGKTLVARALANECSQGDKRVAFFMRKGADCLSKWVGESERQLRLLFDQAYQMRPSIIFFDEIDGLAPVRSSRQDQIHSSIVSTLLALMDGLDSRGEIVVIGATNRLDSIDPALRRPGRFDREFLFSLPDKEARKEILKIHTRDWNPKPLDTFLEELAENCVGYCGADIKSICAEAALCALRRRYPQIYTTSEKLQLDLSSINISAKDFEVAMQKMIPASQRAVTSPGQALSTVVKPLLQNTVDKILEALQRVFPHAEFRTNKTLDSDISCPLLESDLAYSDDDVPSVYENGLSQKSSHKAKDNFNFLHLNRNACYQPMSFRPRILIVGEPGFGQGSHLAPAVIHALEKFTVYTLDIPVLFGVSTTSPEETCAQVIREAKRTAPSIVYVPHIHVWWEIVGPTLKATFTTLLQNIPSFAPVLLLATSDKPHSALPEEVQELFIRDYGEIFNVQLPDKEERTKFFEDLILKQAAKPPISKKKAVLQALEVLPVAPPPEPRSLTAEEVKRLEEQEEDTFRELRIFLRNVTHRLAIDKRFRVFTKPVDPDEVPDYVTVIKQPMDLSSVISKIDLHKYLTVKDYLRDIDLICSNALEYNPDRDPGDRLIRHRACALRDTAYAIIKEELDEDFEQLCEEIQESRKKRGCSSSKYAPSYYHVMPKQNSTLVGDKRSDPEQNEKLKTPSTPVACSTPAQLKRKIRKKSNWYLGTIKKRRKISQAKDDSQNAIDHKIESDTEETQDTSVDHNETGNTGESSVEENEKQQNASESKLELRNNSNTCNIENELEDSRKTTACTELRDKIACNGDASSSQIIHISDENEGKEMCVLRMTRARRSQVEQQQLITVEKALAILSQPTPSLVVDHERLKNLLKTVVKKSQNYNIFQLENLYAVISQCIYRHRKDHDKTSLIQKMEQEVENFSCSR
UniProt P31939: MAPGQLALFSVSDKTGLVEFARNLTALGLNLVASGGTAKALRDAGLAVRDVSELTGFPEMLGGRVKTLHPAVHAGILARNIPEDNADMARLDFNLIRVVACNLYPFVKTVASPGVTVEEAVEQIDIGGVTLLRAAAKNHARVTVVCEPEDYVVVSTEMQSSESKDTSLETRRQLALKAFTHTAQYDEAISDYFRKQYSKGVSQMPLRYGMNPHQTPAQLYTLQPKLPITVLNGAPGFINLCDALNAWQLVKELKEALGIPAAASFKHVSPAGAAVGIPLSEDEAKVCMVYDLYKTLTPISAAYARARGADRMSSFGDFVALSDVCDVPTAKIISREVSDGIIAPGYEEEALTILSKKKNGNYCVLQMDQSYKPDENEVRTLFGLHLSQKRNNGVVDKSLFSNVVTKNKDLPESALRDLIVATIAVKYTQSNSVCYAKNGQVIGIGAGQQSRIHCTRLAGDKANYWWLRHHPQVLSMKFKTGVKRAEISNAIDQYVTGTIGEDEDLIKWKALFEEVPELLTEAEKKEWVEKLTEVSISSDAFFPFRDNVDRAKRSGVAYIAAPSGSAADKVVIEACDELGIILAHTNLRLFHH
UniProt Q9HD20: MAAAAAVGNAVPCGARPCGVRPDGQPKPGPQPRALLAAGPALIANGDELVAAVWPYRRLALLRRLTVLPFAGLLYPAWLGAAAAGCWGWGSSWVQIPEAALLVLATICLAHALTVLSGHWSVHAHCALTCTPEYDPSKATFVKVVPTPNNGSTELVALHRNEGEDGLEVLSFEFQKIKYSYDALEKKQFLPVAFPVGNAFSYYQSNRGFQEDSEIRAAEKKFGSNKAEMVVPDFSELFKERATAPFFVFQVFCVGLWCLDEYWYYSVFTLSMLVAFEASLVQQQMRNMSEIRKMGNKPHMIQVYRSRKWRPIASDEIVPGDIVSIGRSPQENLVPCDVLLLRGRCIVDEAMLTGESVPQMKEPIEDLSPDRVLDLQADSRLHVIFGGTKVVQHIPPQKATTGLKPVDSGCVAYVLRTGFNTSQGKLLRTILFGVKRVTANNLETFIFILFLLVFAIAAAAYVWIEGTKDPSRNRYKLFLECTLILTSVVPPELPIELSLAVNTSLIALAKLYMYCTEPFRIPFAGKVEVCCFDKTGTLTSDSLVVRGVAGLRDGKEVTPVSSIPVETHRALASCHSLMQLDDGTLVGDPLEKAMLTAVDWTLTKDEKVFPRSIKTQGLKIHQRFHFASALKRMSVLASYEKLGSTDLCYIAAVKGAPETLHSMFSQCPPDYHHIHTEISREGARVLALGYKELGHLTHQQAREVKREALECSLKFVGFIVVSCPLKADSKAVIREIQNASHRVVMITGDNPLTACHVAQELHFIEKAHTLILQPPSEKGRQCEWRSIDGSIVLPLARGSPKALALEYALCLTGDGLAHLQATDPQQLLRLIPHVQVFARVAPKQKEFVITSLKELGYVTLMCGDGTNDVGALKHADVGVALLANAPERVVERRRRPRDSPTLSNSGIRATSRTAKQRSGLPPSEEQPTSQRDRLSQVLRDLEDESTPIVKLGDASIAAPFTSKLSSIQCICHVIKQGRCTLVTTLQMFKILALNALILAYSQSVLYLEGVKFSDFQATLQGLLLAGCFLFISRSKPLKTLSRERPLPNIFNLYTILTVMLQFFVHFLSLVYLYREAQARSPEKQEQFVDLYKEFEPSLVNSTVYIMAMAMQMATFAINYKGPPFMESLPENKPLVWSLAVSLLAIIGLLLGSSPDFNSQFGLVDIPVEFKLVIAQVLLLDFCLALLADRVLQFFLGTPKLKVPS
UniProt Q13315: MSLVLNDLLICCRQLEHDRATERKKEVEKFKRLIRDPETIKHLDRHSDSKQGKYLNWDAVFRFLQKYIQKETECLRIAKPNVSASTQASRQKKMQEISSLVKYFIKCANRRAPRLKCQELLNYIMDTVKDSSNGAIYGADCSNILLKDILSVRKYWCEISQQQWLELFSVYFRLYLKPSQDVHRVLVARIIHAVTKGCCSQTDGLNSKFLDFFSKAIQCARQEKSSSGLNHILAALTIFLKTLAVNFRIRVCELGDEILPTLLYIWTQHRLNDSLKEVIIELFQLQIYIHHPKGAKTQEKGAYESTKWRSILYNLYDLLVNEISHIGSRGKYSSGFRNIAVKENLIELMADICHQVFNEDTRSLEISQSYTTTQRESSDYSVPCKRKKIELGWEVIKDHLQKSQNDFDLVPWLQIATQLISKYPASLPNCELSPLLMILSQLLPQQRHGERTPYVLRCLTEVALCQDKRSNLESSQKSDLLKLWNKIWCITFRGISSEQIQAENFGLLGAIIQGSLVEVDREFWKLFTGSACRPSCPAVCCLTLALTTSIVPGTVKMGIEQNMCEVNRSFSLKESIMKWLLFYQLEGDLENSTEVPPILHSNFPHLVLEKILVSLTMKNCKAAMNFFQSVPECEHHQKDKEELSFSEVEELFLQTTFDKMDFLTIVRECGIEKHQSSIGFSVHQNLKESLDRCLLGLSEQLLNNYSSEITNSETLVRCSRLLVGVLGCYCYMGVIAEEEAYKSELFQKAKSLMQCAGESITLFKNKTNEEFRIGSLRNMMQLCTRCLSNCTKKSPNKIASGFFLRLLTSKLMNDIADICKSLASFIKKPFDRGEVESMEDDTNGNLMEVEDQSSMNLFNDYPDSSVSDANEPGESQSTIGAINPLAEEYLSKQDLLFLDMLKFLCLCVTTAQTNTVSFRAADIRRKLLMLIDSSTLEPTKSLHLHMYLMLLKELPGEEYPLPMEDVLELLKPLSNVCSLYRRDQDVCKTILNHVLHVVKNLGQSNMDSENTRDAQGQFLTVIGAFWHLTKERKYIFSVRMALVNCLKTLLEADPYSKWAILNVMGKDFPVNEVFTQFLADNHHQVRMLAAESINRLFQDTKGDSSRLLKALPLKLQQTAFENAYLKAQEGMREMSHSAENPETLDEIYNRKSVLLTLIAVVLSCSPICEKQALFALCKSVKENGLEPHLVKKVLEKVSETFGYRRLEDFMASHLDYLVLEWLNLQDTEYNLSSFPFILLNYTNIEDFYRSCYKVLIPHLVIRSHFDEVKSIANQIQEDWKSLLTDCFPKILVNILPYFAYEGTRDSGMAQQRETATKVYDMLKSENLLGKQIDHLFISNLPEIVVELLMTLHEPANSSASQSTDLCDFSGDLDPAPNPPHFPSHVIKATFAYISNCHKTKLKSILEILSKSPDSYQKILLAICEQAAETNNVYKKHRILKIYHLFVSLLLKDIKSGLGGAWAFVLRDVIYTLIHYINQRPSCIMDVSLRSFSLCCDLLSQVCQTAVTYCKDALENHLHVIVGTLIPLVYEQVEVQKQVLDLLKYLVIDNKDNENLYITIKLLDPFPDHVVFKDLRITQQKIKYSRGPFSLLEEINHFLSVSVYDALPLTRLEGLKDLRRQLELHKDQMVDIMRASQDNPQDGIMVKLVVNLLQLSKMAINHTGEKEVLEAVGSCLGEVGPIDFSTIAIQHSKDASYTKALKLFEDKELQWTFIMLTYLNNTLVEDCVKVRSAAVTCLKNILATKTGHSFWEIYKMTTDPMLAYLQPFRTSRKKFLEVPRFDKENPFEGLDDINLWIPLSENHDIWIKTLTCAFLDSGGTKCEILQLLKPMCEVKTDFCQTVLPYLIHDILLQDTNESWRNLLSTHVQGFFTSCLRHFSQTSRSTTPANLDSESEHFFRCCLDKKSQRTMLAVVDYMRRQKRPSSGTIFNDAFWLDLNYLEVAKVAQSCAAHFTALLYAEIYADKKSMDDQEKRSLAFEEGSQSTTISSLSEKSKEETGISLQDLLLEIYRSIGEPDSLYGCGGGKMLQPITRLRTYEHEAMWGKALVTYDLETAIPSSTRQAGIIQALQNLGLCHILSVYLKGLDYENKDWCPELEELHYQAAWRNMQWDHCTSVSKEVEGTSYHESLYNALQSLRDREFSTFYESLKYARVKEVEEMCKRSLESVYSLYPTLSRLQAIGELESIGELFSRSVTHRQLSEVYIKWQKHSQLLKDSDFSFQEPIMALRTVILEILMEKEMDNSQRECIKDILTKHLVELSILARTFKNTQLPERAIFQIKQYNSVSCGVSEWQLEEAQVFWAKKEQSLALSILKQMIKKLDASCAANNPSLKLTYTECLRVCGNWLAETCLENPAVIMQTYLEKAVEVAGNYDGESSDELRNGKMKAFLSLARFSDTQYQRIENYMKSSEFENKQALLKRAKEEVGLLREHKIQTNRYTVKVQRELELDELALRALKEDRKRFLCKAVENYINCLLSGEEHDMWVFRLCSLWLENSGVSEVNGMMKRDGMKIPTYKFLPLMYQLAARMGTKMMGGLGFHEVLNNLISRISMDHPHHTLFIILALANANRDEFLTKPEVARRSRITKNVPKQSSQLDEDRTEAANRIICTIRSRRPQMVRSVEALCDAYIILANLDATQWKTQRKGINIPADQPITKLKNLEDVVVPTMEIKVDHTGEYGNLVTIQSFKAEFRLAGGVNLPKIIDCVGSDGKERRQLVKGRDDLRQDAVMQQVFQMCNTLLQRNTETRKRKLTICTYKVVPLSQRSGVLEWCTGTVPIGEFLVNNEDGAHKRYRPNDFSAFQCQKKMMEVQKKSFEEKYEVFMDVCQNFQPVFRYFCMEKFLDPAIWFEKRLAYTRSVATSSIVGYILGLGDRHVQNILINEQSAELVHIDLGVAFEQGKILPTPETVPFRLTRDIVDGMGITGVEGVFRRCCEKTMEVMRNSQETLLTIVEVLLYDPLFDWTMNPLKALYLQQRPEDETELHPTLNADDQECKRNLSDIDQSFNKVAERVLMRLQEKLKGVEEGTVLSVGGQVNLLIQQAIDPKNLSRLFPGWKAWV
UniProt O00244: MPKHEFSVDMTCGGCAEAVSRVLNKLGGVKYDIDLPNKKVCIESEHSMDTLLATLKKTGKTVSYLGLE
UniProt Q99766: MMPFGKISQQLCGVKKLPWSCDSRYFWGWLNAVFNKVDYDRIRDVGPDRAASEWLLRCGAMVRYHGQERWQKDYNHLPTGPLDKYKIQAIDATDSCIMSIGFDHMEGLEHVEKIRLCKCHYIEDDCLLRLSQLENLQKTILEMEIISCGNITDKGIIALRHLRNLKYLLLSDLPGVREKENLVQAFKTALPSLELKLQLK

Compound: CC1Cc2ccccc2N1C(=O)C1CCCN(C1)C(=O)CCl (mixture of isomers) [TRIM25 ligand 11 (diastereomer mixture)]
Assay: probe-labelled cysteine peptide fold change vs DMSO (competition) (log2 fold change); higher = less target engagement (more negative = stronger competition)
Conditions: THP-1, incubation time: 4 h
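Also: competitive chemoproteomic profiling in live THP-1 cells with an iodoacetamide desthiobiotin (IA-DTB) probe, comparing probe-labelled peptide intensities in compound-treated cells against DMSO-treated controls.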

Target | probe-labelled cysteine peptide fold change (10 µM) | probe-labelled cysteine peptide fold change (50 µM)
ATAD2_Q6PL18_1246_NNSNTCNIENELEDSRK (UniProt Q6PL18) | -0.0402 | -0.126
ATP2A1_O14983_561_CLALATR (UniProt O14983) | -0.0778 | 0.0181
ASCC3_Q8N3C0_1315_HPPHTELLDLQPLPITALGCK (UniProt Q8N3C0) | 0.332 | 0.238
ATG16L2_Q8NAA4_319_YQIIPVCVAAR (UniProt Q8NAA4) | -0.106 | -0.0055
ARPC1B_O15143_26_TQIAICPNNHEVHIYEK (UniProt O15143) | 0.062 | 0.00851
ATP6V1A_P38606_240_VLDALFPCVQGGTTAIPGAFGCGK (UniProt P38606) | -0.151 | -0.00325
ATIC_P31939_325_MSSFGDFVALSDVCDVPTAK (UniProt P31939) | -0.144 | -0.188
ARPC2_O15144_120_RNCFASVFEK (UniProt O15144) | -0.0324 | -0.0758
ARRB2_P32121_141_ACGVDFEIR (UniProt P32121) | -0.0146 | -0.0247
ATP9B_O43861_551_AIVLCHNVTPVYESR (UniProt O43861) | 0.0569 | -0.164
ATP13A1_Q9HD20_574_ALASCHSLMQLDDGTLVGDPLEK (UniProt Q9HD20) | 0.26 | -0.189
ATP2A2_P16615_498_SMSVYCTPNKPSR (UniProt P16615) | -0.0769 | -0.0652
ARSA_P15289_493_GEDPALQICCHPGCTPR (UniProt P15289) | 0.139 | 0.309
ASPSCR1_Q9BZE9_138_ECLQHPGGATPVCVYTR (UniProt Q9BZE9) | 0.158 | -0.134
ATAD2_Q6PL18_1156_TPSTPVACSTPAQLKR (UniProt Q6PL18) | -0.161 | -0.271
ATP2A2_P16615_560_CLALATHDNPLRR (UniProt P16615) | -0.0194 | 0.0413
ATP13A1_Q9HD20_969_LSSIQCICHVIK (UniProt Q9HD20) | -0.0413 | 0.0236
ARRB2_P32121_126_KLGQHAHPFFFTIPQNLPCSVTLQPGPEDTGK (UniProt P32121) | -0.12 | -0.0524
ATG7_O95352_358+368_CLLLGAGTLGCNVAR (UniProt O95352) | -0.0153 | 0.1
ATL3_Q6DD88_429_ELYENFCK (UniProt Q6DD88) | 0.089 | 0.00288
ATF7IP_Q6VMQ6_955_AADSTSQCGK (UniProt Q6VMQ6) | -0.0275 | -0.0506

Target | probe-labelled cysteine peptide fold change (10 µM) | probe-labelled cysteine peptide fold change (50 µM)
ATP13A1_Q9HD20_969+971_LSSIQCICHVIK (UniProt Q9HD20) | -0.175 | 0.152
ASPH_Q12797_685_YSIMHPGTHVWPHTGPTNCR (UniProt Q12797) | -0.0275 | -0.00213
ATG4C_Q96DT6_367_DFPLETFHCPSPK (UniProt Q96DT6) | 0.0101 | 0.0834
ATM_Q13315_1495_SFSLCCDLLSQVCQTAVTYCK (UniProt Q13315) | 0.0504 | -0.367
ATP2A2_P16615_364_TGTLTTNQMSVCR (UniProt P16615) | -0.0905 | 0.0925
ATOX1_O00244_12_PKHEFSVDMTCGGCAEAVSR (UniProt O00244) | -0.204 | 0.25
ATL2_Q8NHH9_441_MGGDEFCR (UniProt Q8NHH9) | 0.0643 | 0.0457
ATIC_P31939_363_KNGNYCVLQMDQSYKPDENEVR (UniProt P31939) | 0.0888 | -0.0425
ATP13A3_Q9H7F0_545_SQFVACMATCHSLTK (UniProt Q9H7F0) | 0.00992 | 0.0114
ARPC4_P59998_21_ATLQAALCLENFSSQVVER (UniProt P59998) | 0.0687 | 0.17
ATP5MF_P56134_7_ASVGECPAPVPVK (UniProt P56134) | -0.012 | -0.17
ATP6V1B2_P21281_162_VFNGSGKPIDRGPVVLAEDFLDIMGQPINPQCR (UniProt P21281) | -0.191 | -0.212
ATM_Q13315_2753_LTICTYK (UniProt Q13315) | 0.00389 | 0.0732
ATG4B_Q9Y4P1_189_TSVPCAGATAFPADSDR (UniProt Q9Y4P1) | 0.197 | -0.0259
ATAD2B_Q9ULI0_53_AASCPAAK (UniProt Q9ULI0) | -0.101 | -0.101
ATP1A1_P05023_464_CIELCCGSVK (UniProt P05023) | -0.142 | -0.0156
ASMTL_O95671_441_LTACQVATAFNLSR (UniProt O95671) | 0.111 | 0.155
ATM_Q13315_353_ENLIELMADICHQVFNEDTR (UniProt Q13315) | -0.368 | -0.329
ATP5S_Q99766_134_CHYIEDDCLLR (UniProt Q99766) | -0.0886 | 0.0874
ATIC_P31939_434_YTQSNSVCYAK (UniProt P31939) | 0.0597 | 0.138

Some of the entries so far, tab-delimited:
Target	probe-labelled cysteine peptide fold change (10 µM)	probe-labelled cysteine peptide fold change (50 µM)
ATM_Q13315_1495_SFSLCCDLLSQVCQTAVTYCK (UniProt Q13315)	0.0504	-0.367
ATP2A2_P16615_364_TGTLTTNQMSVCR (UniProt P16615)	-0.0905	0.0925
